Publication PMC12531455
No constants are given. Whether binding was seen depends on the method and setting. Binding seen in cells or lysates may run through a third protein. Some binding calls cover weakened binding; strength is not graded here.

Amino acid sequences for entries named in this document (tags omitted). Residues count along the entry.
UniProt Q9NZQ7, residues 19-290: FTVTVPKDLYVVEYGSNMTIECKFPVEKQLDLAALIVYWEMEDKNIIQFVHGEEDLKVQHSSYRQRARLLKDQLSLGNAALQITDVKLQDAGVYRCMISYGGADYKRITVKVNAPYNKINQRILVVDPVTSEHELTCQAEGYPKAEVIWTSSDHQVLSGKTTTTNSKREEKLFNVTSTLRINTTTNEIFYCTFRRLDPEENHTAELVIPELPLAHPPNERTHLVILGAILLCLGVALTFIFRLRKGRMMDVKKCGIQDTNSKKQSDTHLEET
UniProt Q86TM6: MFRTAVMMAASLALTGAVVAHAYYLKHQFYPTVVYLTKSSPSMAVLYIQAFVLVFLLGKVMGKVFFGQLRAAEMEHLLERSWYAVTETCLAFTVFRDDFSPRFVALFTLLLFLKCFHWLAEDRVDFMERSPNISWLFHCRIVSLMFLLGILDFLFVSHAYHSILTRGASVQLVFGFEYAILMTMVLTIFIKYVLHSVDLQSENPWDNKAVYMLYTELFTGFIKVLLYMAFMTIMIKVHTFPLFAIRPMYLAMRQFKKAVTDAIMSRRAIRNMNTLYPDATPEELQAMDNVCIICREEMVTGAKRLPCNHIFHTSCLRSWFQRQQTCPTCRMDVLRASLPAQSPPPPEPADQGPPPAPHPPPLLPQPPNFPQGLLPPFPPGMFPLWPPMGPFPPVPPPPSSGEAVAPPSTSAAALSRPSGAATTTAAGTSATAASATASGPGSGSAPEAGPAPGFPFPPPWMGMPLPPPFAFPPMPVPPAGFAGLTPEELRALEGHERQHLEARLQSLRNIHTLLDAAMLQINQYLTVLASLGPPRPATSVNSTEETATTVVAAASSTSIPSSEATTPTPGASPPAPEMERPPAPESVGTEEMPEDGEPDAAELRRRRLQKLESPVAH

Target: programmed death‐ligand 1 (UniProt Q9NZQ7)
Assay: co-IP; 293T cells cotransfected with PD‐L1 and HRD1 plasmids; extracts in IP lysis buffer with 1% protease inhibitor cocktail, overnight at 4°C with target‐specific antibodies, five washes, immunoblot

HMG‐CoA reductase degradation protein 1 (from UniProt Q86TM6 1-617) (enzyme)
binding: binds
